Data reported in publication PMC5670207.
These are yes or no findings as the source states them, for the method shown. Binding seen in cells or lysates may run through a third protein. Some binding calls cover weakened binding; strength is not graded here.

By UniProt entry, the sequences of proteins in these tests, tags left out. Residues count along the entry.
UniProt P42768, residues 201-321: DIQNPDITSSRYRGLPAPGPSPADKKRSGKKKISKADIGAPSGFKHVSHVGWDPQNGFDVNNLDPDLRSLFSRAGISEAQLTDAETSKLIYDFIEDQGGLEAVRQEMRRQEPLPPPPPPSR
UniProt P60953: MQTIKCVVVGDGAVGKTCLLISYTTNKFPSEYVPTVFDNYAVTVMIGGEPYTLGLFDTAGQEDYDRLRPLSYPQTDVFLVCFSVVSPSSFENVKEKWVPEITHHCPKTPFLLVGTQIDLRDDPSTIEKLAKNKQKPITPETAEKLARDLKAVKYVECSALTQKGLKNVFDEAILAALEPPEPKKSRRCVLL

Molecular target: GST-Wiskott-Aldrich Syndrome protein (WASP)-CRIB (UniProt P42768)
Assay: pull-down; GST fusion protein on Glutathione Sepharose 4B beads incubated overnight at 4 °C with lysates of SCP2 cells (stably infected with scrambled or EPHA4 shRNA, stimulated with TGF-β1 for different times); lysis buffer 50 mM Tris-HCl pH 7.5, 1% Triton X-100, 0.5% sodium deoxycholate, 0.1% SDS, 500 mM NaCl, 10 mM MgCl2; beads washed 4 times with cold binding buffer; Western blot with GTPase-specific antibodies; only the target purified

binding: binds
Substance: Cdc42 (from UniProt P60953 1-191)
